The list shows a part of the results.

The target in the test is T1, OsSMF1 (Oryza sativa, UniProt Q6ZLB0 1-436).
T1 sequence: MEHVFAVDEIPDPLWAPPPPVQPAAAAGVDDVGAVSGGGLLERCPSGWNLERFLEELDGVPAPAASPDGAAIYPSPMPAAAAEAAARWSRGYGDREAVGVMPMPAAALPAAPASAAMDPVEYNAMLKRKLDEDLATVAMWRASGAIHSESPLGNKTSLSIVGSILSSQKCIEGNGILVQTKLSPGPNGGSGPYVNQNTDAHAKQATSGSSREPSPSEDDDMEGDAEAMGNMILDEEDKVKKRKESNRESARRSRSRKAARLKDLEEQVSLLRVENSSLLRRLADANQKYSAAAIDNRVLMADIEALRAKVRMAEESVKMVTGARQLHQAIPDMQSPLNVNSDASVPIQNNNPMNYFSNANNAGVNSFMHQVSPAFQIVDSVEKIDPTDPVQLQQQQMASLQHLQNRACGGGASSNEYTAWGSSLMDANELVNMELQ
The test is described as follows: protein-binding microarray (RPBM); PBS, 2% BSA, 51.3 ng/ul salmon testes DNA, 50 uM zinc acetate, 200 nM TF, 25 C, 1 h; high values mean tight binding. Conditions: protein: recombinant; tags: N-terminal polyhistidine and DsRed monomer fusion (pET32a); chain copies: 2; label: CyDye5-dUTP incorporated in the synthesized complementary strand; 3' TTTTT single-stranded linker to array surface; dsDNA, one strand shown. The procedure, abridged: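 The binding signal is fluorescence intensity per feature, in arbitrary units, read on an Axon 4000B scanner. Polyhistidine- and DsRed-tagged transcription factors (N-terminal fusions) from E. coli BL21-CodonPlus were purified on Ni–NTA and applied at 200 nM for 1 h at 25 °C to a double-stranded, BSA-blocked custom Agilent array in buffer with 50 µM zinc acetate.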
For the sequence “ATATTCAATATATAATTCATCTGCCGGATTAATTGCAATGCGGAGTCACCTAGTGCAG”, the binding signal is 3430 fluorescence intensity (a.u.).
To “TAATCACTCGATCTCTCCCAGATGCTTTATGCAAAGCCTACGGAGTCACCTAGTGCAG” belongs 21600 fluorescence intensity (a.u.).
To “AGCTAGCTAGCCACGCCATCCCTTTCTCCTCCTCCTTCTTCGGAGTCACCTAGTGCAG” belongs 5860 fluorescence intensity (a.u.); to “CCGGCGCCTTCTCGCGCGGCGGAATCAGGCCGCCGCGCTACGGAGTCACCTAGTGCAG”, 10100 fluorescence intensity (a.u.); to “ATCGCAACAGAGTGGTTCGATTCCACCTCAGAACGACCTACGGAGTCACCTAGTGCAG”, 3660 fluorescence intensity (a.u.).
To “TATCTCTCTCCCGCTGACAACCCGGTCACACCGAACCAACCGGAGTCACCTAGTGCAG” belongs 3850 fluorescence intensity (a.u.); to “TGAGGCCTCAATTGCAAGCTTCACTAACAAACACAGAAAACGGAGTCACCTAGTGCAG”, 28000 fluorescence intensity (a.u.).
Consider “GATATAAACAGTGACGTATTAACGATTATTCCAACACTGCCGGAGTCACCTAGTGCAG”, for which the binding signal was 4120 fluorescence intensity (a.u.).
Take “GATCGGGACGTGTCGCGCAGCATGCAAGCCGCCGCACCCGCGGAGTCACCTAGTGCAG”: the binding signal was 3940 fluorescence intensity (a.u.).
Consider “GGGCGCACCTACAGCACCAAGTGTAACCAGAGCTTACACACGGAGTCACCTAGTGCAG”, for which the binding signal was 3420 fluorescence intensity (a.u.).
Then “CTACAGTATCTGGTGAATAGTAAATCAAAGCAGTAGTTTTCGGAGTCACCTAGTGCAG”, with 3230 fluorescence intensity (a.u.).
To “CTGACGACCCGGATCAACCATTGGCAGCAGCTCCTGTACACGGAGTCACCTAGTGCAG” belongs 3580 fluorescence intensity (a.u.); to “TTCCCGATCCCTCCCTCGTCATCAAGCCAACTCCATCGTTCGGAGTCACCTAGTGCAG”, 6040 fluorescence intensity (a.u.).
To “AAGGCCCGCCCGGAGCGCGAATGCATCCGTGCCGCGTCAACGGAGTCACCTAGTGCAG” belongs 5480 fluorescence intensity (a.u.); to “ACACAGACATCATTGCAATGACAAGCCATTTTAGAGACAACGGAGTCACCTAGTGCAG”, 4120 fluorescence intensity (a.u.).
As to “GGGCTAGTTTAGTACAGTAATTTAGTTTGGTAGAGCAGCCCGGAGTCACCTAGTGCAG”, the binding signal is 22100 fluorescence intensity (a.u.).
To “CCGGGCCCACATGTCATCGACTCATCAAGCAGCCAGCCAACGGAGTCACCTAGTGCAG” belongs 3160 fluorescence intensity (a.u.); to “CCAGTGGACCCCACGCGTCAGCGTGCTCCAGTCCACTCGACGGAGTCACCTAGTGCAG”, 4630 fluorescence intensity (a.u.); to “CGGTTCTCTTCCCCGAATCGAACGTGGTGGCGTCGGGCTTCGGAGTCACCTAGTGCAG”, 3570 fluorescence intensity (a.u.).
Then “CGTACACGTAATATCCAATTCTGTTCTTGGGCCTCACGAGCGGAGTCACCTAGTGCAG”, with 6460 fluorescence intensity (a.u.); and “TGGCAGTTTTATTTTCGTCACATATATACGTGGATCATGGCGGAGTCACCTAGTGCAG”, with 6810 fluorescence intensity (a.u.).
To “TGATGTTGTTTGTTGCTCAGCGCCAAGTAATATGGCAATGCGGAGTCACCTAGTGCAG” belongs 5280 fluorescence intensity (a.u.).
For “CGGCGGCGGCGGCAGGCGCGGCCGGGGACGGCGCTGACGGCGGAGTCACCTAGTGCAG”, the binding signal was 3750 fluorescence intensity (a.u.).
Turning to “CTTTGGTCCTCACAGCCTCGACAATTATGTTACCGCGATCCGGAGTCACCTAGTGCAG”, the binding signal was 22900 fluorescence intensity (a.u.).
In the case of “TCTGTGCTGATTAATCTCTCCCTCTCTTTGTTCCTCTTCTCGGAGTCACCTAGTGCAG”, the binding signal was 3530 fluorescence intensity (a.u.).
Then “TTCGGATTATCGGATATATCCCTGCATGCCCACGCGGCGGCGGAGTCACCTAGTGCAG”, with 3840 fluorescence intensity (a.u.); and “GCTTTGTTGGTGATCAATAACGTGGACACTGGTCGGTGGTCGGAGTCACCTAGTGCAG”, with 4090 fluorescence intensity (a.u.); and “GTGGAGGCGAGGCGGCGAGAGGCGGGTAGCAGTGGAGGAGCGGAGTCACCTAGTGCAG”, with 3430 fluorescence intensity (a.u.).
To “GCGATGCAAGCTGTGACACACTAACACTCTACTTGTACTACGGAGTCACCTAGTGCAG” belongs 4070 fluorescence intensity (a.u.).
To “GCGCGTATAGCCGTCGCGCGGAGGGACGAGCCAAGGCCACCGGAGTCACCTAGTGCAG” belongs 3690 fluorescence intensity (a.u.); to “AATGCGCCACCGTGGCCCACCGCCGTGACCTCGCCGCCGGCGGAGTCACCTAGTGCAG”, 4800 fluorescence intensity (a.u.).
On to “GCCCTCTATAATATGTCATTAGGACTGCTAATTGCTATACCGGAGTCACCTAGTGCAG”, for which the binding signal is 3920 fluorescence intensity (a.u.).
As for “GGCCGGGCACGGGCGTCGTGCCACCACCGTCCGTCTGCGCCGGAGTCACCTAGTGCAG”, the binding signal is 4050 fluorescence intensity (a.u.).
To “GCATGCTTCAGCAGCCTATGTTAGTCGTTGTGGATAACGTCGGAGTCACCTAGTGCAG” belongs 4050 fluorescence intensity (a.u.); to “CGCTATTCGCTATAGTGGTTTTGCTGTATCAAATAAGAGGCGGAGTCACCTAGTGCAG”, 18400 fluorescence intensity (a.u.); to “CTAGCTTCCAATCAACCAGACAACAACCACATATATCTTTCGGAGTCACCTAGTGCAG”, 3230 fluorescence intensity (a.u.).
Then “GTTGCCACAAGTACACGGAGTGTGTTGCTTTCGTCTCCCCCGGAGTCACCTAGTGCAG”, with 3480 fluorescence intensity (a.u.).
To “TAGATACGTACTCCTACGCGTGTGCCGTGGCCGTACGTACCGGAGTCACCTAGTGCAG” belongs 4510 fluorescence intensity (a.u.).
Regarding “GCCCACTCGTCACTGACTCTGTACTAGTACCCACGCCACGCGGAGTCACCTAGTGCAG”, the binding signal is 4090 fluorescence intensity (a.u.).
On to “GAGAGCTACTATTGTATTTCTTTTATGTCTGTCTGATTTCCGGAGTCACCTAGTGCAG”, for which the binding signal was 4210 fluorescence intensity (a.u.).
Then “CGAGCCCAACCAGAAACCAACCGTGTCACCACTACTCCCCCGGAGTCACCTAGTGCAG”, with 3380 fluorescence intensity (a.u.); and “CCCTGTCTCGATGTCGATGGACTGCTCGACGACGTGGTGGCGGAGTCACCTAGTGCAG”, with 3520 fluorescence intensity (a.u.); and “GATGGCGCTGACACGGCGTCCTTCTTCATGCGCAACTCTGCGGAGTCACCTAGTGCAG”, with 5800 fluorescence intensity (a.u.).
For the sequence “TGTTGGTAATGCTACGTGTTTCAAATCAAAGGCCTGCTGTCGGAGTCACCTAGTGCAG”, the binding signal was 4020 fluorescence intensity (a.u.).
Regarding “TCGGCGGCGGCGGCGGCGGAGGAGGAGGAGGAGTCAGCGACGGAGTCACCTAGTGCAG”, the binding signal was 4090 fluorescence intensity (a.u.).
Regarding “AATATGAGATTTTGGCCTACGTGTTCTTTACATGTAGTGTCGGAGTCACCTAGTGCAG”, the binding signal was 3710 fluorescence intensity (a.u.).
To “ATCAAAGAGGATTCTGTATTGTATTGGCAACAACCGAAAACGGAGTCACCTAGTGCAG” belongs 13800 fluorescence intensity (a.u.); to “CCACACCGCATCGTCATCTACACATCTCCACCTCCCGCGGCGGAGTCACCTAGTGCAG”, 5220 fluorescence intensity (a.u.).
Then “CCCAGCCCACAAAGGAAGCGAGATCACAATTTCTGGGCCGCGGAGTCACCTAGTGCAG”, with 3400 fluorescence intensity (a.u.); and “GTCAGCCCCGTCGTCGCCGGTCCGTCGCCGCCCGCGTCAGCGGAGTCACCTAGTGCAG”, with 3170 fluorescence intensity (a.u.); and “GCGTCTGGTGGTGACGCCAGGCCCGTCCACCTCCCCGTCGCGGAGTCACCTAGTGCAG”, with 4770 fluorescence intensity (a.u.).
Then “TAAGTTACACGCAACTCATCTGGTTCAGTTACGTGGAGTGCGGAGTCACCTAGTGCAG”, with 6460 fluorescence intensity (a.u.).
Turning to “CGCGTCGCCGTGTCCAACACGCGCGCCGCCGCCGGCGCCGCGGAGTCACCTAGTGCAG”, the binding signal was 3690 fluorescence intensity (a.u.).
For “TGGTCGGCGGCGACGGCAGTTGGTGGCGGTGGAGGTGCGACGGAGTCACCTAGTGCAG”, the binding signal is 23000 fluorescence intensity (a.u.).
